Source: US9723838B2, “Pyrazolyl amide compounds and uses thereof” (SHENYANG SINOCHEM AGROCHEMICALS R&D CO., LTD., priority 2013, dated 2017)
Some entries share one result that the patent states for a list of compounds.

Assays:
Assay type in all cases: in vivo
[1] = test system: army worm; test: Test against army worm (corn leaf spraying); details: after 72 h
Experimental: The test method is spraying. The middle part of fresh corn leaves were chosen and cut into 3 cm sects. The test compounds were sprayed on both sides of the sects by Airbrush according to the designed concentration from low to high dose. The sects were placed in 6 cm diameter Petri dish with filter paper. Ten test insects (3 instar) were introduced on each treatment after drying. Each treatment set the pure water as CK. The treated sects were placed in a certain condition. After 72 h, the number of surviving insects was investigated and the mortality rates were calculated.

[2] = test system: diamondback moth; test: Test against diamondback moth (leaf disc spraying); details: after 72 h
Source text: The test method is spraying. The leaves of cabbage grown in greenhouse were chosen, removed the surface waxy layer and perforated to get 3 cm diameter leaf discs by the hole puncher. The test compounds were sprayed on both sides of the discs by Airbrush according to the designed concentration from low to high dose. The cabbage discs were placed in 6 cm diameter Petri dish with filter paper. Tentest insects (3 instar) were introduced on each treatment after drying. Each treatment set the pure water as CK. The treated discs were placed in a certain condition. After 72 h, the number of surviving insects was investigated and the mortality rates were calculated.

[3] = test system: green peach aphid; test: Test against green peach aphid (spraying); details: after 48 h
Experimental: According to the solubility of test compounds, the compounds are dissolved in acetone or dimethyl sulfoxide, and then diluted with 0.1% aqueous solution of Tween 80 to form the test liquid 50 ml, the content of acetone or dimethyl sulfoxide in the total solution is not more than 10%.
The 6 cm diameter Petri dish with a layer of filter paper was chosen, a moderate amount of water was added to preserve moisture. A suitable piece of cabbage leaf with 30-50 green peach aphids was excised from a culture plant. Remove the winged and positive aphids, the leaf was placed to the Petri dish above with back upward. The test compounds were sprayed on both sides of the leaf by Airbrush (spray pressure: 10 psi, equate to 0.7 kg/cm^2; spray volume: 0.5 mL; spray distance: 15-20 cm). The treated Petri dishes were placed in a chamber of 23-25° C., 40%-60% relative humidity, L/D 13 h: 11 h. To keep the leaf fresh, a moderate amount of water was added to the Petri dish during the observation. After 48 h, the number of surviving insects was investigated and the mortality rates were calculated.

CC1(C)N=C(c2cc(Cl)cc(Cl)c2NC(=O)c2cc(Br)nn2-c2ncc(Cl)cc2Cl)NC1=O [Compound 1.28]
≥ 80%: mortality against army worm ([1]; 10 ppm) | mortality against army worm ([1]; 100 ppm) | mortality against diamondback moth ([2]; 10 ppm) | mortality against diamondback moth ([2]; 100 ppm)

CC(C)(NC(=O)c1cc(Cl)cc(Cl)c1NC(=O)c1cc(Br)nn1-c1ncc(Cl)cc1Cl)C(N)=O [Compound 1.13]
≥ 80%: mortality against army worm ([1]; 10 ppm) | mortality against army worm ([1]; 100 ppm) | mortality against diamondback moth ([2]; 10 ppm) | mortality against diamondback moth ([2]; 100 ppm) | mortality against green peach aphid ([3]; 100 ppm) | mortality against green peach aphid ([3]; 600 ppm)

CC1(C)N=C(c2cc(Br)cc(Br)c2NC(=O)c2cc(Cl)nn2-c2ncccc2Cl)N=C1O [Compound 1.37]
≥ 80%: mortality against army worm ([1]; 10 ppm) | mortality against army worm ([1]; 100 ppm) | mortality against diamondback moth ([2]; 10 ppm) | mortality against diamondback moth ([2]; 100 ppm) | mortality against green peach aphid ([3]; 100 ppm) | mortality against green peach aphid ([3]; 600 ppm)

CC(C)(NC(=O)c1cc(F)cc(Cl)c1NC(=O)c1cc(Br)nn1-c1ncccc1Cl)C(N)=O [Compound 1.8]
≥ 80%: mortality against army worm ([1]; 10 ppm) | mortality against army worm ([1]; 100 ppm) | mortality against diamondback moth ([2]; 10 ppm) | mortality against diamondback moth ([2]; 100 ppm) | mortality against green peach aphid ([3]; 100 ppm) | mortality against green peach aphid ([3]; 600 ppm)

CC1(C)N=C(c2cc(F)cc(Cl)c2NC(=O)c2cc(Br)nn2-c2ncccc2Cl)NC1=O [Compound 1.25]
≥ 80%: mortality against army worm ([1]; 10 ppm) | mortality against army worm ([1]; 100 ppm) | mortality against diamondback moth ([2]; 10 ppm) | mortality against diamondback moth ([2]; 100 ppm)

CC1(C)N=C(c2cc(Cl)cc(Br)c2NC(=O)c2cc(Br)nn2-c2ncccc2Cl)NC1=O [Compound 1.23]
≥ 80%: mortality against army worm ([1]; 10 ppm) | mortality against army worm ([1]; 100 ppm) | mortality against diamondback moth ([2]; 10 ppm) | mortality against diamondback moth ([2]; 100 ppm) | mortality against green peach aphid ([3]; 100 ppm) | mortality against green peach aphid ([3]; 600 ppm)

CC1(C)N=C(c2cc(F)cc(Cl)c2NC(=O)c2cc(Cl)nn2-c2ncccc2Cl)NC1=O [Compound 1.24]
≥ 80%: mortality against army worm ([1]; 10 ppm) | mortality against army worm ([1]; 100 ppm) | mortality against diamondback moth ([2]; 10 ppm) | mortality against diamondback moth ([2]; 100 ppm)

CC1(C)N=C(c2cc(Br)cc(Br)c2NC(=O)c2cc(Br)nn2-c2ncccc2Cl)N=C1O [Compound 1.38]
≥ 80%: mortality against army worm ([1]; 10 ppm) | mortality against army worm ([1]; 100 ppm) | mortality against diamondback moth ([2]; 10 ppm) | mortality against diamondback moth ([2]; 100 ppm) | mortality against green peach aphid ([3]; 600 ppm)

CC(C)(NC(=O)c1cc(Br)cc(Br)c1NC(=O)c1cc(Cl)nn1-c1ncccc1Cl)C(N)=O [Compound 1.9]
≥ 80%: mortality against army worm ([1]; 100 ppm) | mortality against diamondback moth ([2]; 10 ppm) | mortality against diamondback moth ([2]; 100 ppm) | mortality against green peach aphid ([3]; 100 ppm) | mortality against green peach aphid ([3]; 600 ppm)

CC1(C)N=C(c2cc(Cl)cc(Br)c2NC(=O)c2cc(Cl)nn2-c2ncccc2Cl)NC1=O [Compound 1.22]
≥ 80%: mortality against army worm ([1]; 10 ppm) | mortality against army worm ([1]; 100 ppm) | mortality against diamondback moth ([2]; 10 ppm) | mortality against diamondback moth ([2]; 100 ppm) | mortality against green peach aphid ([3]; 100 ppm) | mortality against green peach aphid ([3]; 600 ppm)

CC1(C)N=C(c2cc(Br)cc(Br)c2NC(=O)c2cc(Cl)nn2-c2ncccc2Cl)NC1=O [Compound 1.26]
≥ 80%: mortality against army worm ([1]; 10 ppm) | mortality against army worm ([1]; 100 ppm) | mortality against diamondback moth ([2]; 10 ppm) | mortality against diamondback moth ([2]; 100 ppm) | mortality against green peach aphid ([3]; 100 ppm) | mortality against green peach aphid ([3]; 600 ppm)

CC1(C)N=C(c2cc(Cl)cc(Cl)c2NC(=O)c2cc(Cl)nn2-c2ncc(Cl)cc2Cl)N=C1O [Compound 1.40]
≥ 80%: mortality against army worm ([1]; 10 ppm) | mortality against army worm ([1]; 100 ppm)

CC1(C)N=C(c2cc(Cl)cc(Cl)c2NC(=O)c2cc(Br)nn2-c2ncccc2Cl)N=C1O [Compound 1.36]
≥ 80%: mortality against army worm ([1]; 10 ppm) | mortality against army worm ([1]; 100 ppm) | mortality against diamondback moth ([2]; 10 ppm) | mortality against diamondback moth ([2]; 100 ppm) | mortality against green peach aphid ([3]; 100 ppm) | mortality against green peach aphid ([3]; 600 ppm)

CC(C)(NC(=O)c1cc(Cl)cc(Br)c1NC(=O)c1cc(Br)nn1-c1ncccc1Cl)C(N)=O [Compound 1.6]
≥ 80%: mortality against army worm ([1]; 10 ppm) | mortality against army worm ([1]; 100 ppm) | mortality against diamondback moth ([2]; 10 ppm) | mortality against diamondback moth ([2]; 100 ppm) | mortality against green peach aphid ([3]; 100 ppm) | mortality against green peach aphid ([3]; 600 ppm)

CC(C)(NC(=O)c1cc(Cl)cc(Br)c1NC(=O)c1cc(Cl)nn1-c1ncccc1Cl)C(N)=O [Compound 1.5]
≥ 80%: mortality against army worm ([1]; 100 ppm) | mortality against diamondback moth ([2]; 10 ppm) | mortality against diamondback moth ([2]; 100 ppm) | mortality against green peach aphid ([3]; 100 ppm) | mortality against green peach aphid ([3]; 600 ppm)

CC1(C)N=C(c2cc(Cl)cc(Cl)c2NC(=O)c2cc(Br)nn2-c2ncc(Cl)cc2Cl)N=C1O [Compound 1.39]
≥ 80%: mortality against army worm ([1]; 10 ppm) | mortality against army worm ([1]; 100 ppm) | mortality against diamondback moth ([2]; 10 ppm) | mortality against diamondback moth ([2]; 100 ppm) | mortality against green peach aphid ([3]; 600 ppm)

CC(C)(NC(=O)c1cc(F)cc(Cl)c1NC(=O)c1cc(Cl)nn1-c1ncccc1Cl)C(N)=O [Compound 1.7]
≥ 80%: mortality against army worm ([1]; 100 ppm) | mortality against diamondback moth ([2]; 10 ppm) | mortality against diamondback moth ([2]; 100 ppm) | mortality against green peach aphid ([3]; 100 ppm)

CC1(C)N=C(c2cc(Cl)cc(Cl)c2NC(=O)c2cc(Cl)nn2-c2ncccc2Cl)N=C1O [Compound 1.35]
≥ 80%: mortality against army worm ([1]; 10 ppm) | mortality against army worm ([1]; 100 ppm) | mortality against diamondback moth ([2]; 10 ppm) | mortality against diamondback moth ([2]; 100 ppm)
